Experimental data published in US20120015032A1, “COMBINATION PREPARATION COMPRISING INHIBITOR OF HMG-COA REDUCTASE AND ASPIRIN AND METHOD FOR MANUFACTURING THE SAME” (HANALL PHARMACEUTICAL COMPANY, LTD., priority 2007, published 2012).
At least one compound was matched to its structure with a doubt left.

System: SHR rats
Assay: Test of antihypertensive effect in rats
Assay type: in vivo, rat
Conditions: Table 11
Protocol: Animal tests supporting the effects of the present invention were carried out as described in Table 10 below. [table]

Q: For CCC(C)(C)C(=O)O[C@H]1C[C@@H](C)C=C2C=C[C@H](C)[C@H](CC[C@@H]3C[C@@H](O)CC(=O)O3)[C@H]21 [simvastatin], which antihypertensive effect is on record?
A: Its antihypertensive effect is “did not show a antihypertensive effect”.
